Assay: LC-MS/MS LM metabololipidomics of human whole blood during coagulation
Settings: for LM concentration, Coagulation t = 0 h, Avg / LM concentration, Coagulation t = 0.25 h, Avg / LM concentration, Coagulation t = 0.5 h, Avg / LM concentration, Coagulation t = 1 h, Avg / LM concentration, Coagulation t = 3 h, Avg / LM concentration, Coagulation t = 6 h, Avg / LM concentration, Coagulation t = 24 h, Avg: human whole blood, mean of 12 donors; for highest concentrations of SPMs generated within 24 hours of coagulation in blood: healthy donors

Row | Compound | LM concentration, Coagulation t = 0 h, Avg | LM concentration, Coagulation t = 0.25 h, Avg | LM concentration, Coagulation t = 0.5 h, Avg | LM concentration, Coagulation t = 1 h, Avg | LM concentration, Coagulation t = 3 h, Avg | LM concentration, Coagulation t = 6 h, Avg | LM concentration, Coagulation t = 24 h, Avg | highest concentrations of SPMs generated within 24 hours of coagulation in blood [pM]
1 | CCC(O)/C=C/C=C\C/C=C\C/C=C\C/C=C\CCCC(=O)O (stereo not drawn) [18-HEPE] | 204.5 pg/mL | 314.4 pg/mL | 236.9 pg/mL | 244.5 pg/mL | 571.3 pg/mL | 700.0 pg/mL | 1321.6 pg/mL | 
2 | O=C(O)CCC[C@H](O)\C=C/C=C/C=C/[C@H](O)C/C=C\CCCCCO [20-OH-LTB4] | — ((—) denotes concentrations < 0.1 pg/ml) | 3.1 pg/mL | 8.0 pg/mL | 29.9 pg/mL | 51.3 pg/mL | 66.5 pg/mL | 47.0 pg/mL | 
3 | CCCCC/C=C\C/C=C\C/C=C\C/C=C\CCCC(=O)O [AA, arachidonic acid] | 23726.9 pg/mL | 25635.8 pg/mL | 24374.6 pg/mL | 30685.7 pg/mL | 41191.8 pg/mL | 39809.1 pg/mL | 46263.5 pg/mL | 
4 | CCCCC[C@@H](O)/C=C/C=C\C=C\C=C\[C@@H](O)[C@@H](O)CCCC(=O)O [AT-LX44, 15-epi-lipoxin A4 (aspirin-triggered lipoxin A4)] | 3.6 pg/mL | 6.5 pg/mL | 6.1 pg/mL | 8.1 pg/mL | 11.9 pg/mL | 16.3 pg/mL | 22.5 pg/mL | 
5 | CCCCC/C=C\C[C@@H](O)/C=C/C=C/C=C\[C@@H](O)CCCC(=O)O [LTB4, leukotriene B4, (5S, 12R-dihydroxy-eicosa-6Z, 8E, 10E, 14Z-tetraenoic acid)] | 5.0 pg/mL | 14.1 pg/mL | 35.2 pg/mL | 106.2 pg/mL | 139.9 pg/mL | 115.4 pg/mL | 105.2 pg/mL | 
6 | CCCCC[C@H](O)/C=C/C=C\C=C\C=C\[C@@H](O)[C@@H](O)CCCC(=O)O [LXA4, lipoxin A4 (5S, 6R, 15S-trihydroxy-eicosa-7E, 9E, 11Z, 13E-tetraenoic acid)] | — ((—) denotes concentrations < 0.1 pg/ml) | — ((—) denotes concentrations < 0.1 pg/ml) | — ((—) denotes concentrations < 0.1 pg/ml) | — ((—) denotes concentrations < 0.1 pg/ml) | — ((—) denotes concentrations < 0.1 pg/ml) | — ((—) denotes concentrations < 0.1 pg/ml) | — ((—) denotes concentrations < 0.1 pg/ml) | 
7 | CCCCC[C@H](O)[C@H](O)/C=C/C=C/C=C\C=C\[C@@H](O)CCCC(=O)O [LXB4, lipoxin B4: (5S, 14R, 15S-trihydroxy-eicosa-6E, 8Z, 10E, 12E-tetraenoic acid)] | 1.1 pg/mL | 1.0 pg/mL | 0.9 pg/mL | 1.6 pg/mL | 3.8 pg/mL | 3.0 pg/mL | 29.6 pg/mL | 303
8 | CC/C=C\C/C=C\C[C@H](O)\C=C/C=C/C=C/[C@H](O)C/C=C\CCC(=O)O [Maresin 1, maresin 1 (7R, 14S-dihydroxy-docosa-4Z, 8E, 10E, 12Z, 16Z, 19Z-hexaenoic acid)] | 1.4 pg/mL | 2.9 pg/mL | 2.4 pg/mL | 1.6 pg/mL | 5.2 pg/mL | 7.1 pg/mL | 10.3 pg/mL | 209
9 | CC/C=C\C[C@H](O)\C=C/C=C/C=C/[C@H](O)C/C=C\C/C=C\CCC(=O)O [PD1, protectin D1 (10R, 17S-dihydroxy-docosa-4Z, 7Z, 11E, 13E, 15Z, 19Z-hexaenoic acid)] | 0.8 pg/mL | 0.8 pg/mL | 0.8 pg/mL | 0.8 pg/mL | 0.8 pg/mL | 1.5 pg/mL | 2.2 pg/mL | 
10 | CCCCC[C@H](O)/C=C/[C@H]1C(=O)C[C@H](O)[C@@H]1C/C=C\CCCC(=O)O [PGD2, 11-oxo-9α, 15S-dihydroxy-prosta-5Z, 13E-dien-1-oic acid] | 1.5 pg/mL | 1.6 pg/mL | 6.5 pg/mL | 15.6 pg/mL | 10.3 pg/mL | 12.2 pg/mL | 24.1 pg/mL | 
11 | CCCCC[C@H](O)/C=C/[C@H]1[C@H](O)CC(=O)[C@@H]1C/C=C\CCCC(=O)O [PGE2, 9-oxo-11α, 15S-dihydroxy-prosta-5Z, 13E-dien-1-oic acid] | 2.2 pg/mL | 3.0 pg/mL | 22.1 pg/mL | 65.6 pg/mL | 83.8 pg/mL | 108.1 pg/mL | 1286.8 pg/mL | 
12 | CCCCC[C@H](O)/C=C/[C@@H]1[C@@H](C/C=C\CCCC(=O)O)[C@@H](O)C[C@H]1O [PGF2a, 9α, 11α, 15S-trihydroxy-prosta-5Z, 13E-dienoic acid] | 1.1 pg/mL | 1.7 pg/mL | 7.4 pg/mL | 19.5 pg/mL | 31.6 pg/mL | 44.1 pg/mL | 168.4 pg/mL | 
13 | CC/C=C\C[C@H](O)/C=C/C=C\C=C\C=C\[C@@H](O)[C@@H](O)C/C=C\CCC(=O)O [RvD1, Resolvin D1 (7S, 8R, 17S-trihydroxy-docosa-4Z, 9E, 11E, 13Z, 15E, 19Z-hexaenoic acid)] | — ((—) denotes concentrations < 0.1 pg/ml) | — ((—) denotes concentrations < 0.1 pg/ml) | 0.4 pg/mL | 0.5 pg/mL | 3.0 pg/mL | 9.6 pg/mL | 57.8 pg/mL | 549
14 | CC/C=C\C[C@H](O)[C@H](O)/C=C/C=C/C=C\C=C\[C@@H](O)C/C=C\CCC(=O)O [RvD2, Resolvin D2 (7S, 16R, 17S-trihydroxy-docosa-4Z, 8E, 10Z, 12E, 14E, 19Z-hexaenoic acid)] | — ((—) denotes concentrations < 0.1 pg/ml) | — ((—) denotes concentrations < 0.1 pg/ml) | — ((—) denotes concentrations < 0.1 pg/ml) | — ((—) denotes concentrations < 0.1 pg/ml) | — ((—) denotes concentrations < 0.1 pg/ml) | — ((—) denotes concentrations < 0.1 pg/ml) | — ((—) denotes concentrations < 0.1 pg/ml) | 
15 | CC/C=C\C[C@H](O)/C=C/C=C\C[C@@H](O)/C=C/C=C/C=C\[C@@H](O)CCC(=O)O [RvD3, Resolvin D3 (4S, 11R, 17S-trihydroxy-docosa-5Z, 7E, 9E, 13Z, 15E, 19Z-hexaenoic acid)] | — ((—) denotes concentrations < 0.1 pg/ml) | — ((—) denotes concentrations < 0.1 pg/ml) | — ((—) denotes concentrations < 0.1 pg/ml) | — ((—) denotes concentrations < 0.1 pg/ml) | — ((—) denotes concentrations < 0.1 pg/ml) | — ((—) denotes concentrations < 0.1 pg/ml) | — ((—) denotes concentrations < 0.1 pg/ml) | 
16 | CC/C=C\C[C@H](O)/C=C/C=C\C/C=C\C=C\[C@@H](O)C/C=C\CCC(=O)O [RvD5, Resolvin D5 (7S, 17S-dihydroxy-docosa-4Z, 8E, 10Z, 13Z, 15E, 19Z-hexaenoic acid)] | 0.8 pg/mL | 1.3 pg/mL | 1.1 pg/mL | 1.7 pg/mL | 3.4 pg/mL | 6.8 pg/mL | 10.7 pg/mL | 115
17 | CC/C=C\C[C@H](O)/C=C/C=C\C/C=C\C/C=C\C=C\[C@@H](O)CCC(=O)O [RvD6, resolvin D6] | — ((—) denotes concentrations < 0.1 pg/ml) | — ((—) denotes concentrations < 0.1 pg/ml) | — ((—) denotes concentrations < 0.1 pg/ml) | — ((—) denotes concentrations < 0.1 pg/ml) | — ((—) denotes concentrations < 0.1 pg/ml) | — ((—) denotes concentrations < 0.1 pg/ml) | — ((—) denotes concentrations < 0.1 pg/ml) | 

— US11592453B2, “Personalized metabolomic profiling of specialized pro-resolving mediators” (THE BRIGHAM AND WOMEN'S HOSPITAL, INC., priority 2016, dated 2023)
